Assay results as given in publication PMC8216464.
These are yes or no findings as the source states them, for the method shown. Some binding calls cover weakened binding; strength is not graded here.

Protein sequences, listed by entry. Tags and fused reporters are not part of them. Lines headed by an entry give the natural chain unless they say otherwise; changes in a name come on top. Residues count along the entry.
UniProt Q9ULM6: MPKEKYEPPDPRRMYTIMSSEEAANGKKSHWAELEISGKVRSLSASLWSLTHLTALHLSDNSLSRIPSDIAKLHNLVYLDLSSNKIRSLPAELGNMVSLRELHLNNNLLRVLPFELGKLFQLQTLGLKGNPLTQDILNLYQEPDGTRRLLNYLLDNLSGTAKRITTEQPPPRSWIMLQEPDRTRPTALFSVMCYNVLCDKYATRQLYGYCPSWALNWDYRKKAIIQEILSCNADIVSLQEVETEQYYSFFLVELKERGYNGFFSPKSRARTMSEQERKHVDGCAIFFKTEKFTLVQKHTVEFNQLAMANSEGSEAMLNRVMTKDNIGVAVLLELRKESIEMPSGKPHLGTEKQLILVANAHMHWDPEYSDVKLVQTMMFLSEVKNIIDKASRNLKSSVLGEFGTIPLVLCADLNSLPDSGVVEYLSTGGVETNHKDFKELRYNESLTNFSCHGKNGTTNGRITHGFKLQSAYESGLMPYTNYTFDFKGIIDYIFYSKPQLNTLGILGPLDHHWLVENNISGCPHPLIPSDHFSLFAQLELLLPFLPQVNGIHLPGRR
human CCR4a ΔN (deletion of residues M1–K28): residues 29-557 of Q9ULM6
UniProt Q9UIV1: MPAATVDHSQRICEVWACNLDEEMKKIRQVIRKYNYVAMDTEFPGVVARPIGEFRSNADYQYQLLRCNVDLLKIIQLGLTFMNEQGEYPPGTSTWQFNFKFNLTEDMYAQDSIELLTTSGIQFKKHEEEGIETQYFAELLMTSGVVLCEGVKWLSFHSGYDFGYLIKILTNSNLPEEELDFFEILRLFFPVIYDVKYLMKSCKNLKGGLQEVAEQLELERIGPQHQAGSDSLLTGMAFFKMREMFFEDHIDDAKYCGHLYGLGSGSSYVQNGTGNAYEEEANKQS

Assays:
[1] = target: human CCR4a (Hs CCR4a) (human) (UniProt Q9ULM6); test: crystal structure; co-expressed and purified CCR4a-CAF1a complex; crystals from 100 mM MES (pH = 6.0), 100 mM MgCl2, 8% PEG 6000 at 18°C; 3.3 Å, space group C2; both purified
[2] = target: human CCR4a D491A (active site mutant) (human) (UniProt Q9ULM6); test: SEC + other: anion-exchange chromatography (co-elution); MBP-tagged CCR4 and CAF1 variants co-expressed in E. coli, isolated on amylose resin, tags cleaved; complex separated from excess CAF1 on Superdex 200 (10 mM HEPES pH 7.5, 300 mM NaCl, 2 mM DTT, 18°C), then Source 15Q gradient 75 to 200 mM NaCl, where CCR4 and CAF1 co-eluted as a sharp peak; both purified
[3] = target: human CCR4a D491N (human) (UniProt Q9ULM6); test: as above
human CCR4a R65E (human) = human CCR4a R65E (human) (UniProt Q9ULM6); test: as above
human CCR4a R87T (human) = human CCR4a R87T (human) (UniProt Q9ULM6); test: as above
[4] = target: human CCR4a ΔN (deletion of residues M1–K28) (human) (UniProt Q9ULM6); test: as above
[5] = target: human CCR4a (Hs CCR4a) (human) (UniProt Q9ULM6); test: as above
[6] = target: human CCR4a N481A (human) (UniProt Q9ULM6); test: as above
[7] = target: human CCR4a N481T (human) (UniProt Q9ULM6); test: as above
[8] = target: human CCR4a N481Y (human) (UniProt Q9ULM6); test: as above

Measured: binding

human CAF1a (Hs CAF1a) (from UniProt Q9UIV1 1-285) (enzyme)
binds: [1] | [2] | [3] | human CCR4a R65E (human) | human CCR4a R87T (human) | [4]

human CAF1a ΔC (deletion of residues S264–S285) (from UniProt Q9UIV1 1-263) (domain or fragment)
binds: [5]

human CAF1a S112A (from UniProt Q9UIV1 1-285) (enzyme)
binds: [2]

human CAF1a D40A E42A (active site mutant) (from UniProt Q9UIV1 1-285) (enzyme)
binds: [5] | [2] | [6] | [7] | [8]
